Measured values: patent publication EP0664129A2, “Epicholesterol for treating dyslipidemia” (PHARMACIA S.p.A., priority 1994, dated 1995)

Assay: Gas liquid chromatography of unesterified sterols in plasma and liver of mice fed enriched diets
Type: in vivo
Conditions: 1.5% sterol enriched diet, Mean ± SD, n=3; for Percent Distribution Dihydrocholesterol (unesterified sterol content): nd: not detectable
Description: Male Sprague Dawley rats weighing 250 g and male CD mice weighing 22-25 g (Charles River) were housed in rooms maintained at 21±1°C with relative humidity 50-60% and a 12 hours light-dark cycle. After a week of housing, the animals were allocated to the different experimental groups and received one of the following diets: • a) rat or mouse chow diet, containing 0.5% sodium cholate; • b) cholesterol enriched diet, containing 0.5% sodium cholate and 1.5% cholesterol; • c) epicholesterol enriched diet, containing 0.5% sodium cholate and 1.5% epicholesterol; • d) epicholesterol and cholesterol enriched diet containing 0.5% sodium cholate and 1.5% of both sterols. Weight of the animals and food consumption were recorded daily.
After overnight fasting, the animals were anesthetized with sodium pentobarbital (50 mg/kg body weight) and exsanguinated from the abdominal aorta. Plasma was obtained by low speed (3000 g for 10 min) centrifugation of whole blood containing Na₂EDTA as anticoagulant.
Plasma lipid extracts were prepared according to Bligh E.G., Dyer W.J., Can. J. Bioch. Physiol, 31, 911, 1959.
Liver specimens (500 mg) were excised from the lateral liver lobe, washed in ice-cold saline, and immediately placed on dry-ice and stored at -80°C. They were extracted according to the method of Folch J. et al., J. Biol. Chem. , 226, 497, 1957, as modified by Carlson L.A., J. Atheroscler. Res., 3, 334, 1963.
Lipids extract from plasma and liver were separated by TLC on Silica Gel plates from Merck using petroleum ether 40-70°/diethyl ether/acetic acid (80:20:1) as developing system. Cholesterol, epicholesterol, dihydrocholesterol, and 7-keto-cholesterol as representative of the oxysterol class of sterols migrated with very similar Rf and could be recovered as a single area from the TLC plate. These sterols were eluted from the silica using chloroform and were dried by evaporation under N₂. The samples were redissolved in pyridine and derivatizated adding an equal volume of MBSTFA [N-methyl-N(tert-butyldimethylsilyl)Trifluoroacetamide].
After 20 minutes at room temperature the samples were analyzed by GLC according to Smith N.B., Lipids, 17, 464, 1982, on a Carlo Erba Mega 3000 gaschromatographer equipped with a flame ionization detector and a 25 m OV1 column (0.2 mm id., film thickness 0.2-0.25). He was used as carrier at 100 Kps. The splitless injection technique was used and 1-2 µl sample were injected. […] The injection and the detector temperatures were respectively 340°C and 350°C. Retention time of cholesterol, epicholesterol, dihydrocholesterol and 7keto-cholesterol were determined by injecting pure sterols.

| Compound | Percent Distribution Cholesterol (unesterified sterol content) (mice liver) [%] | Percent Distribution Oxysterols (unesterified sterol content) (mice liver) [%] | Percent Distribution Cholesterol (unesterified sterol content) (mice plasma) [%] | Percent Distribution Oxysterols (unesterified sterol content) (mice plasma) [%] | Percent Distribution Dihydrocholesterol (unesterified sterol content) (mice liver) [%] | Percent Distribution Dihydrocholesterol (unesterified sterol content) (mice plasma) [%] |
| --- | --- | --- | --- | --- | --- | --- |
| CC(C)CCC[C@@H](C)[C@H]1CC[C@H]2[C@@H]3CC=C4C[C@@H](O)CC[C@]4(C)[C@H]3CC[C@]12C [Cholesterol] | 83.6±7.7 | 16.4±7.7 | 97.4±0.8 | 3.3±1.9 | – | – |
| CC(C)CCC[C@@H](C)[C@H]1CC[C@H]2[C@@H]3CC=C4C[C@H](O)CC[C@]4(C)[C@H]3CC[C@]12C [Epicholesterol, cholest-5-en-3α-ol] | 75.7±4.5 | 14.3±5.8 | 87.4±1.0 | 1.5±1.3 | 9.0±1.5 | 8.5±0.9 |
